The values below come from patent US20150232557A1 (APTEVO RESEARCH AND DEVELOPMENT, published 2015).

Chains of the proteins cited; added tags and fusions are not shown. Residues count along the entry.
UniProt P07766, residues 23-207: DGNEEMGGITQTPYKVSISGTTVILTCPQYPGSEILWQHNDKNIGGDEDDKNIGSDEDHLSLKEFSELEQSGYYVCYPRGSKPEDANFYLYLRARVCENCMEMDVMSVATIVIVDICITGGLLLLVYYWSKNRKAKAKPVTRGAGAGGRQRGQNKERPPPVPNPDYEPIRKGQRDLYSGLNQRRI

These are yes or no findings as the source states them, for the method shown. Some results given as binding are weak or reduced against the parent protein; the word gives no strength. Tags and fused reporters may be left off the sequences shown.

To fix the notation:
B1: DRA219 (H3 L1 IgG4 AA ADCC-CDC null Fc, SSS prehinge) (Fc fusion)
chain: QVQLVQSGGGVVQPGRSLRLSCKASGYTFTRSTMHWVRQAPGKGLEWIGYINPSSAYTNYNQKFKDRFTISADKSKSTAFLQMDSLRPEDTGVYFCARPQVHYDYNGFPYWGQGTPVTVSSGGGGSGGGGSGGGGSAQDIQMTQSPSSLSASVGDRVTMTCSASSSVSYMNWYQQKPGKAPKRWIYDSSKLASGVPARFSGSGSGTDYTLTISSLQPEDFATYYCQQWSRNPPTFGGGTKLQITSSSEPKSSDKTHTCPPCPAPEAAAPSVFLFPPKPKDTLMISRTPEVTCVVVDVSQEDPEVQFNWYVDGVEVHNAKTKPREEQFNSTYRVVSVLTVLHQDWLNGKAYACAVSNKGLPSSIEKTISKAKGQPREPQVYTLPPSQEEMTKNQVSLTCLVKGFYPSDIAVEWESNGQPENNYKTTPPVLDSDGSFFLYSRLTVDKSRWQEGNVFSCSVMHEALHNHYTQKSLSLSPGK
B2: DRA222 (H4 L1 with IgG4 AA ADCC-CDC null Fc) (Fc fusion)
chain: QVQLVESGGGVVQPGRSLRLSCKASGYTFTRSTMHWVRQAPGQGLEWIGYINPSSAYTNYNQKFKDRFTISADKSKSTAFLQMDSLRPEDTGVYFCARPQVHYDYNGFPYWGQGTPVTVSSGGGGSGGGGSGGGGSAQDIQMTQSPSSLSASVGDRVTMTCSASSSVSYMNWYQQKPGKAPKRWIYDSSKLASGVPARFSGSGSGTDYTLTISSLQPEDFATYYCQQWSRNPPTFGGGTKLQITSSSEPKSSDKTHTCPPCPAPEAAAPSVFLFPPKPKDTLMISRTPEVTCVVVDVSQEDPEVQFNWYVDGVEVHNAKTKPREEQFNSTYRVVSVLTVLHQDWLNGKAYACAVSNKGLPSSIEKTISKAKGQPREPQVYTLPPSQEEMTKNQVSLTCLVKGFYPSDIAVEWESNGQPENNYKTTPPVLDSDGSFFLYSRLTVDKSRWQEGNVFSCSVMHEALHNHYTQKSLSLSPGK
B3: DRA161 SMIP (H3L1, IgG4 AA N297A Fc) (Fc fusion)
chain: QVQLVQSGGGVVQPGRSLRLSCKASGYTFTRSTMHWVRQAPGKGLEWIGYINPSSAYTNYNQKFKDRFTISADKSKSTAFLQMDSLRPEDTGVYFCARPQVHYDYNGFPYWGQGTPVTVSSGGGGSGGGGSGGGGSAQDIQMTQSPSSLSASVGDRVTMTCSASSSVSYMNWYQQKPGKAPKRWIYDSSKLASGVPARFSGSGSGTDYTLTISSLQPEDFATYYCQQWSRNPPTFGGGTKLQITRRTSPKSSDKTHTCPPCPAPEAAAPSVFLFPPKPKDTLMISRTPEVTCVVVDVSQEDPEVQFNWYVDGVEVHNAKTKPREEQFASTYRVVSVLTVLHQDWLNGKEYKCKVSNKGLPSSIEKTISKAKGQPREPQVYTLPPSQEEMTKNQVSLTCLVKGFYPSDIAVEWESNGQPENNYKTTPPVLDSDGSFFLYSRLTVDKSRWQEGNVFSCSVMHEALHNHYTQKSLSLSPGK
B4: DRA228 (Fc fusion)
chain: QVQLVQSGGGVVQPGRSLRLSCKASGYTFTRSTMHWVRQAPGKGLEWIGYINPSSAYTNYNQKFKDRFTISADKSKSTAFLQMDSLRPEDTGVYFCARPQVHYDYNGFPYWGQGTPVTVSSGGGGSGGGGSGGGGSAQDIQMTQSPSSLSASVGDRVTMTCSASSSVSYMNWYQQKPGKAPKRWIYDSSKLASGVPARFSGSGSGTDYTLTISSLQPEDFATYYCQQWSRNPPTFGGGTKLQITSSSEPKSSDKTHTCPPCPAPEAAAPSVFLFPPKPKDTLMISRTPEVTCVVVDVSQEDPEVQFNWYVDGVEVHNAKTKPREEQFNSTYRVVSVLTVLHQDWLNGKAYACAVSNKGLPSSIEKTISKAKGQPREPQVYTLPPSQEEMTKNQVSLTCLVKGFYPSDIAVEWESNGQPENNYKTTPPVLDSDGSFFLYSRLTVDKSRWQEGNVFSCSVMHEALHNHYTQKSLSLSPGK
B5: DRA234 (H4L1, IgG4 AA N297A Fc) (Fc fusion)
chain: QVQLVESGGGVVQPGRSLRLSCKASGYTFTRSTMHWVRQAPGQGLEWIGYINPSSAYTNYNQKFKDRFTISADKSKSTAFLQMDSLRPEDTGVYFCARPQVHYDYNGFPYWGQGTPVTVSSGGGGSGGGGSGGGGSAQDIQMTQSPSSLSASVGDRVTMTCSASSSVSYMNWYQQKPGKAPKRWIYDSSKLASGVPARFSGSGSGTDYTLTISSLQPEDFATYYCQQWSRNPPTFGGGTKLQITSSSEPKSSDKTHTCPPCPAPEAAAPSVFLFPPKPKDTLMISRTPEVTCVVVDVSQEDPEVQFNWYVDGVEVHNAKTKPREEQFASTYRVVSVLTVLHQDWLNGKEYKCKVSNKGLPSSIEKTISKAKGQPREPQVYTLPPSQEEMTKNQVSLTCLVKGFYPSDIAVEWESNGQPENNYKTTPPVLDSDGSFFLYSRLTVDKSRWQEGNVFSCSVMHEALHNHYTQKSLSLSPGK
B6: DRA233 (H3L1, IgG4 AA N297A Fc) (Fc fusion)
chain: QVQLVQSGGGVVQPGRSLRLSCKASGYTFTRSTMHWVRQAPGKGLEWIGYINPSSAYTNYNQKFKDRFTISADKSKSTAFLQMDSLRPEDTGVYFCARPQVHYDYNGFPYWGQGTPVTVSSGGGGSGGGGSGGGGSAQDIQMTQSPSSLSASVGDRVTMTCSASSSVSYMNWYQQKPGKAPKRWIYDSSKLASGVPARFSGSGSGTDYTLTISSLQPEDFATYYCQQWSRNPPTFGGGTKLQITSSSEPKSSDKTHTCPPCPAPEAAAPSVFLFPPKPKDTLMISRTPEVTCVVVDVSQEDPEVQFNWYVDGVEVHNAKTKPREEQFASTYRVVSVLTVLHQDWLNGKEYKCKVSNKGLPSSIEKTISKAKGQPREPQVYTLPPSQEEMTKNQVSLTCLVKGFYPSDIAVEWESNGQPENNYKTTPPVLDSDGSFFLYSRLTVDKSRWQEGNVFSCSVMHEALHNHYTQKSLSLSPGK
B7: DRA229 (Fc fusion)
chain: QVQLVESGGGVVQPGRSLRLSCKASGYTFTRSTMHWVRQAPGQGLEWIGYINPSSAYTNYNQKFKDRFTISADKSKSTAFLQMDSLRPEDTGVYFCARPQVHYDYNGFPYWGQGTPVTVSSGGGGSGGGGSGGGGSAQDIQMTQSPSSLSASVGDRVTMTCSASSSVSYMNWYQQKPGKAPKRWIYDSSKLASGVPARFSGSGSGTDYTLTISSLQPEDFATYYCQQWSRNPPTFGGGTKLQITSSSEPKSSDKTHTCPPCPAPEAAAPSVFLFPPKPKDTLMISRTPEVTCVVVDVSQEDPEVQFNWYVDGVEVHNAKTKPREEQFNSTYRVVSVLTVLHQDWLNGKAYACAVSNKGLPSSIEKTISKAKGQPREPQVYTLPPSQEEMTKNQVSLTCLVKGFYPSDIAVEWESNGQPENNYKTTPPVLDSDGSFFLYSRLTVDKSRWQEGNVFSCSVMHEALHNHYTQKSLSLSPGK
B8: DRA209 SMIP (H3L1, IgG4 AA ADCC-CDC null Fc) (Fc fusion)
chain: QVQLVQSGGGVVQPGRSLRLSCKASGYTFTRSTMHWVRQAPGKGLEWIGYINPSSAYTNYNQKFKDRFTISADKSKSTAFLQMDSLRPEDTGVYFCARPQVHYDYNGFPYWGQGTPVTVSSGGGGSGGGGSGGGGSAQDIQMTQSPSSLSASVGDRVTMTCSASSSVSYMNWYQQKPGKAPKRWIYDSSKLASGVPARFSGSGSGTDYTLTISSLQPEDFATYYCQQWSRNPPTFGGGTKLQITRRTEPKSSDKTHTCPPCPAPEAAAPSVFLFPPKPKDTLMISRTPEVTCVVVDVSQEDPEVQFNWYVDGVEVHNAKTKPREEQFNSTYRVVSVLTVLHQDWLNGKAYACAVSNKGLPSSIEKTISKAKGQPREPQVYTLPPSQEEMTKNQVSLTCLVKGFYPSDIAVEWESNGQPENNYKTTPPVLDSDGSFFLYSRLTVDKSRWQEGNVFSCSVMHEALHNHYTQKSLSLSPGK
B9: DRA224 (H5L4 with IgG4 AA ADCC-CDC null Fc) (Fc fusion)
chain: QVQLVQSGAEVKKPGASVKVSCKASGYTFTRSTMHWVRQAPGQRLEWMGYINPSSAYTNYNQKFKDRVTITRDTSASTAYMELSSLRSEDTAVYYCARPQVHYDYNGFPYWGQGTLVTVSSGGGGSGGGGSGGGGSGGGGSEIVLTQSPATLSLSPGERATLSCSASSSVSYMNWYQQKPGQAPRLLIYDSSKLASGIPARFSGSGSGTDFTLTISSLEPEDFAVYYCQQWSRNPPTFGGGTKVEIKSSSEPKSSDKTHTCPPCPAPEAAAPSVFLFPPKPKDTLMISRTPEVTCVVVDVSQEDPEVQFNWYVDGVEVHNAKTKPREEQFNSTYRVVSVLTVLHQDWLNGKAYACAVSNKGLPSSIEKTISKAKGQPREPQVYTLPPSQEEMTKNQVSLTCLVKGFYPSDIAVEWESNGQPENNYKTTPPVLDSDGSFFLYSRLTVDKSRWQEGNVFSCSVMHEALHNHYTQKSLSLSPGK
B10: DRA221 (H4L3 with IgG4 AA ADCC-CDC null Fc) (Fc fusion)
chain: QVQLVESGGGVVQPGRSLRLSCKASGYTFTRSTMHWVRQAPGQGLEWIGYINPSSAYTNYNQKFKDRFTISADKSKSTAFLQMDSLRPEDTGVYFCARPQVHYDYNGFPYWGQGTPVTVSSGGGGSGGGGSGGGGSAQDIQMTQSPSSLSASVGDRVTMTCSASSSVSYMNWYQQKPGKAPKLLIYDSSKLASGVPARFSGSGSGTDYTLTISSLQPEDFATYYCQQWSRNPPTFGGGTKVEIKSSSEPKSSDKTHTCPPCPAPEAAAPSVFLFPPKPKDTLMISRTPEVTCVVVDVSQEDPEVQFNWYVDGVEVHNAKTKPREEQFNSTYRVVSVLTVLHQDWLNGKAYACAVSNKGLPSSIEKTISKAKGQPREPQVYTLPPSQEEMTKNQVSLTCLVKGFYPSDIAVEWESNGQPENNYKTTPPVLDSDGSFFLYSRLTVDKSRWQEGNVFSCSVMHEALHNHYTQKSLSLSPGK
B11: DRA223 (H3L3 with IgG4 AA ADCC-CDC null Fc) (Fc fusion)
chain: QVQLVQSGGGVVQPGRSLRLSCKASGYTFTRSTMHWVRQAPGKGLEWIGYINPSSAYTNYNQKFKDRFTISADKSKSTAFLQMDSLRPEDTGVYFCARPQVHYDYNGFPYWGQGTPVTVSSGGGGSGGGGSGGGGSAQDIQMTQSPSSLSASVGDRVTMTCSASSSVSYMNWYQQKPGKAPKLLIYDSSKLASGVPARFSGSGSGTDYTLTISSLQPEDFATYYCQQWSRNPPTFGGGTKVEIKSSSEPKSSDKTHTCPPCPAPEAAAPSVFLFPPKPKDTLMISRTPEVTCVVVDVSQEDPEVQFNWYVDGVEVHNAKTKPREEQFNSTYRVVSVLTVLHQDWLNGKAYACAVSNKGLPSSIEKTISKAKGQPREPQVYTLPPSQEEMTKNQVSLTCLVKGFYPSDIAVEWESNGQPENNYKTTPPVLDSDGSFFLYSRLTVDKSRWQEGNVFSCSVMHEALHNHYTQKSLSLSPGK

One assay addresses T1, CD3 (human, UniProt P07766 23-207). The assay is described as follows: in vitro binding studies; format not described.
For B1, the binding result was “binds”. On to B2, for which the binding entry is listed as “binds”.

The next assay has as its target T1, CD3. The assay is described as follows: flow cytometry on human PBMC gated on CD5+ T-cells. In general terms: A flow cytometer gives signals particle by particle.
In the case of B3, the binding entry was “binds”. On the same count and under the same terms, the value for B4 was “binds”; that for B5 was “binds”. Consider B6, for which the binding result is given as “binds”.

In the case of B7, the binding entry is “binds”. Take B8: the binding result was “binds”.

A further assay addresses T1, CD3. Description: in vitro binding studies, HEK-produced protein; format not described.
For the molecule B9, the binding entry was “binds”.

As to B1, the binding entry is “binds”. In the case of B10, the binding entry is given as “binds”. Take B11: the binding entry is “binds”. For the molecule B2, the binding entry is listed as “binds”.
